According to PubChem BioAssay AID1671190 (National Center for Advancing Translational Sciences (NCATS), 2021):
The whole screen tested about 580,000 compounds, of which about 6,100 (1.1%) were called active. Inconclusive means that the source gave no clear call. Such entries were picked first, then a sample of the others. The call rests on the fitted dose curve; in most records, active means well fitted inhibition curve with a large enough effect; inconclusive means small, poorly fitted or top-dose-only effect, or another doubt; inactive means no such curve, though single readings can be large or run the other way. Where the call is inconclusive, the potency comes from a doubtful curve fit.

Chains of the proteins cited; added tags and fusions are not shown. Lines headed by an entry give the natural chain unless they say otherwise; changes in a name come on top.
UniProt P18054: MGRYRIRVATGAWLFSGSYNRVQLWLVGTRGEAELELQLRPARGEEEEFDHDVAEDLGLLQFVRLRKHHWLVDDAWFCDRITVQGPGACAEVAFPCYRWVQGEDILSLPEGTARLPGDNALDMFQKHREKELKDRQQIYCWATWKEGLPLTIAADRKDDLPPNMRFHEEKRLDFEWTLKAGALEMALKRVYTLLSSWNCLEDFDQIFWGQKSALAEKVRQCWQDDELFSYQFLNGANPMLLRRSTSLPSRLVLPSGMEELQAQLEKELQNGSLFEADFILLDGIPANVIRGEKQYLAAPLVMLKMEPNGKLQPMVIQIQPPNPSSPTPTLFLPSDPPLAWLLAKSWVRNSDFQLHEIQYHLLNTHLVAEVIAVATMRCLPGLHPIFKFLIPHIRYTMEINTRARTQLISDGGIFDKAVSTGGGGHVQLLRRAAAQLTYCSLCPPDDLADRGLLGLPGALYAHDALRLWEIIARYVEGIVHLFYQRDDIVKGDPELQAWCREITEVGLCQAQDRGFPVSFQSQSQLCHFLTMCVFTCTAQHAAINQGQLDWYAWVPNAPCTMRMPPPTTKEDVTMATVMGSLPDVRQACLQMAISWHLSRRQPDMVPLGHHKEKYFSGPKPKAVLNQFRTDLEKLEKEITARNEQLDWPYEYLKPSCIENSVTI

molecular target: Polyunsaturated fatty acid lipoxygenase ALOX12 (Homo sapiens) (UniProt P18054); experiment: Primary qHTS assay for inhibitors of human arachidonate 12S-lipoxygenase (ALOX12): Round 2; conditions: purified 12hLO, xylenol orange hydroperoxide absorbance; activity change, negative = inhibition: at 108 µM (top of the series) unless noted
Summary of the method: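 Purified human 12hLO at 150 nM in 25 mM Hepes, 0.01% Triton X-100, pH 7.0, preincubated 15 min at room temperature with compound. Reaction started with 40 uM arachidonic acid, 30 min at room temperature. Hydroperoxide measured by Fe-xylenol orange, 573/405 nm absorbance ratio.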
On the % scale 0 is the no-effect control and ±100 the full control effect; potency means the concentration at half of the fitted maximal effect.

Row | Structure (SMILES) | activity change, negative = inhibition | Potency
1 | CC(=O)OCc1nc2sc3c(c2c(=O)[nH]1)CCCC3 | inactive: 0% | 
2 | O=C(OCC(=O)N1CCNC1=O)c1cc2c(F)cccc2s1 |  | inconclusive: 31.6 µM [inhibitor, single point]
3 | CCOc1ccccc1Oc1c(C)oc2cc(OCC(=O)OC(C)(C)C)ccc2c1=O |  | inconclusive: 89.1 µM [inhibitor, single point]
4 | Cc1ccc2c(c1)Oc1ccc(NC(=O)CCCl)cc1C(=O)N2 |  | inconclusive: 50.1 µM [inhibitor, partial curve, poor fit]
5 | Oc1ccc(C[C@H]2CNCCN2CCC23CC4CC(CC(C4)C2)C3)cc1 |  | inconclusive: 50.1 µM [inhibitor, partial curve, poor fit]
6 | O=C(CC1S/C(=N/N=C/c2cccs2)NC1=O)Nc1ccc(Cl)cc1 (centres undefined) | inactive: -17.8% | 
7 | COc1ccc(OC)c2c(=O)cc(C(=O)O)[nH]c12 |  | inconclusive: 5.01 µM [inhibitor, full curve, poor fit]
8 | CN1CCCC(OC(=O)c2ccccc2Br)C1 (centres undefined) |  | inconclusive: 31.6 µM [inhibitor, partial curve, poor fit]
9 | Cc1ccc(NC(=O)c2nsc(Cl)c2Cl)cc1 | inactive: 0% | 
10 | O=C(CCCCCNC(=O)N1CCn2c1nc1ccccc12)N[C@@H](Cc1ccccc1)C(=O)O |  | inconclusive: 50.1 µM [inhibitor, partial curve, poor fit]
11 | O=C1S/C(=C\C=C\c2ccco2)C(=O)N1c1ccc(O)cc1 |  | active: 39.8 µM
12 | CSC1=NSC2=NC(=O)/C(=C/c3coc4ccc(O)cc4c3=O)C(=N)N12 |  | active: 17.8 µM
13 | Cc1ccc(C)c(NC(=O)Cn2cnc3nc4c(cc3c2=O)CCCC4)c1 |  | inconclusive: 100 µM [inhibitor, partial curve, poor fit]
14 | O=C(NCc1cccnc1)c1cnc2ccccc2n1 |  | inconclusive: 79.4 µM [inhibitor, partial curve, poor fit]
15 | O=C(CSc1nc2cc(C(F)(F)F)ccc2n1Cc1ccccc1)c1ccc(Br)s1 |  | inconclusive: 63.1 µM [inhibitor, partial curve, poor fit]
16 | CC[C@@H](C)C(NC(=O)OC(C)(C)C)c1cn([C@@H](CCC(=O)OC(C)(C)C)C(=O)N2CCN(C(=O)OC(C)(C)C)CC2)nn1 (some centres undefined) |  | inconclusive: 89.1 µM [inhibitor, single point]
17 | CC(C)N1CCC(N2CCCC(N3CCN(c4cccc(C(F)(F)F)c4)CC3)C2)CC1 (centres undefined) | inactive: 53.1% | 
18 | O=C(CSc1ncc(-c2ccc(F)cc2)o1)Nc1cccc(Cl)c1 |  | inconclusive: 112 µM [inhibitor, partial curve, poor fit]
19 | O=C(NN1C(=O)c2ccccc2NC1c1ccc([N+](=O)[O-])o1)c1ccc(Br)cc1 (centres undefined) |  | inconclusive: 50.1 µM [inhibitor, partial curve, poor fit]
20 | Cn1c(N)c(C(=O)COC(=O)Cc2ccsc2)c(=O)n(C)c1=O | inactive: 246% [at 57.4 µM] | 
21 | CCOC(=O)C1=C(c2ccccc2)Nc2ncnn2C1c1cccc(OC)c1OC (centres undefined) | inactive: 0% | 
22 | CCCNC(=O)c1nn2cc(Br)cnc2c1Br |  | inconclusive: 5.62 µM [inhibitor, full curve, poor fit]

Row | Structure (SMILES) | activity change, negative = inhibition | Potency
23 | CCc1ccc(-n2c(N3CCN(c4cccc(C)c4C)CC3)nc3ccccc3c2=O)cc1 |  | inconclusive: 158 µM [inhibitor, partial curve, poor fit]
24 | Cc1ccc(Nc2nc(N)nc(N)c2S(=O)(=O)c2ccccc2)cc1 |  | inconclusive: 11.2 µM [inhibitor, partial curve, poor fit]
25 | CC1(C)c2ccccc2N2CC(=O)N[C@@]21/C=C/C=C/c1ccccc1 |  | inconclusive: 112 µM [inhibitor, partial curve, poor fit]
26 | Cc1[nH]c2ccccc2c1/C=C(/C#N)C(=O)NCCO |  | inconclusive: 44.7 µM [inhibitor, partial curve, poor fit]
27 | COCCCn1c(CN(C)CCc2ccccc2)cnc1S(=O)(=O)C1CCCC1 | inactive: 5.7% | 
28 | COc1ccc(NC(=O)c2cc([N+](=O)[O-])nn2Cc2ccccc2)c(C)c1 |  | inconclusive: 50.1 µM [inhibitor, partial curve, poor fit]
29 | O=C(Nc1cccc(-c2nnnn2C2CC2)c1)c1c2c(nc3ccccc13)CCC2 | inactive: 33% | 
30 | Cn1nc(C(=O)NN2C(=O)NC(c3ccccc3)(c3ccccc3)C2=O)c2ccccc2c1=O |  | inconclusive: 31.6 µM [inhibitor, partial curve, poor fit]
31 | CCCCN1CCN(C(=O)c2csc(N3CCN(c4cccc(Cl)c4)CC3)n2)CC1 |  | inconclusive: 50.1 µM [inhibitor, partial curve, poor fit]
32 | O=C(O)CCC(=O)N1CCN(c2nc(-c3ccccc3)c3ccccc3n2)CC1 | inactive: 87.4% | 
33 | C/C=C/C=N\NC(=O)c1ccncc1 |  | inconclusive: 4.47 µM [inhibitor, full curve, poor fit]
34 | CCC(CC)NC(=O)COC(=O)c1cc(C)nc2ccccc12 |  | inconclusive: 316 µM [inhibitor, partial curve, poor fit]
35 | CCSc1nn(CC(=O)N(CC)CC)c2nc3c(c(=O)n12)C(C)(CC)Cc1ccccc1-3 (centres undefined) | inactive: -16.2% | 
36 | Cc1cnc(NC(=O)c2nn(Cc3ccccc3)c(=O)c3ccccc23)s1 |  | inconclusive: 56.2 µM [inhibitor, single point]
37 | CCN(C[C@H]1N[C@@](C)(C(=O)OC)[C@H]2C(=O)N(Cc3ccccc3)C(=O)[C@@H]12)C(=O)Nc1ccc(F)cc1 |  | inconclusive: 22.4 µM [inhibitor, partial curve, poor fit]
38 | Cc1noc(C)c1NC(=O)N(C)C[C@@H]1Oc2c(NC(=O)c3ccncc3)cccc2C(=O)N([C@H](C)CO)C[C@@H]1C |  | inconclusive: 22.4 µM [inhibitor, partial curve, poor fit]
39 | NCC(O)C(F)(F)F (centres undefined) |  | inconclusive: 31.6 µM [inhibitor, partial curve, poor fit]
40 | O=C(C[n+]1cccc(CNC(=O)c2ccc(OC(F)F)cc2)c1)Nc1cc(C(F)(F)F)ccc1Cl |  | inconclusive: 35.5 µM [inhibitor, partial curve]
41 | O=C(C1CCCN(Cc2ccccc2[N+](=O)[O-])C1)N1CCCC1 (centres undefined) |  | inconclusive: 2.82 µM [inhibitor, full curve]
42 | NC(=O)c1ccc(-n2nnnc2SCC(=O)c2ccc(O)c(O)c2)cc1 |  | inconclusive: 8.91 µM [inhibitor, partial curve, poor fit]
43 | Cc1c(-c2ccccc2)nc2ccccc2c1C(=O)N1CCCC1 |  | inconclusive: 79.4 µM [inhibitor, partial curve, poor fit]
44 | O=C(CC1CCCN(c2cnn(CC3CC3)c(=O)c2)C1)NCc1ccccc1Cl (centres undefined) | inactive: 29.2% | 

Row | Structure (SMILES) | activity change, negative = inhibition | Potency
45 | O=C(Cc1cccc2c(=O)cc(-c3ccccc3)oc12)OCCN1CCOCC1 |  | inconclusive: 44.7 µM [inhibitor, partial curve, poor fit]
46 | Cc1cc(C)cc(NC(=O)Nc2cccs2)c1 |  | inconclusive: 31.6 µM [inhibitor, partial curve, poor fit]
47 | COc1cc(C(=O)Nc2sc3c(c2C(=O)O)CCC(C)C3)cc(OC)c1OC (centres undefined) | inactive: 0% | 
48 | O=C(C1=C[C@@H](C2CCCCC2)C[C@@H](OCCCCO)O1)N1CCN(Cc2ccccc2)CC1 |  | inconclusive: 39.8 µM [inhibitor, single point]
49 | CCNC(=O)NC(=O)C(C)Sc1nc2ccccc2o1 (centres undefined) | inactive: -10.8% | 
50 | Cc1c(-c2ccc(F)cc2)[nH]c2ccc(CNC(=O)c3ccc(CO)o3)cc12 |  | inconclusive: 50.1 µM [inhibitor, partial curve]
51 | O=C(c1nc2ccccc2[nH]1)c1ccccc1[N+](=O)[O-] |  | inconclusive: 158 µM [inhibitor, single point]
52 | O=c1[nH]c(C2CCCN(Cc3ccc(OC(F)(F)F)cc3)C2)nn1-c1ccc(Cl)cc1 (centres undefined) | inactive: 10.6% | 
53 | S=C(NCC1(c2ccccc2)CCCC1)Nc1ccccc1 |  | inconclusive: 17.8 µM [inhibitor, partial curve, poor fit]
54 | Cc1cc2nc3n(c(=O)c2n1CC(=O)NCc1ccccc1)CCCCC3 | inactive: 10.2% | 
55 | O=C(CCC1CCCC1)N1CCN(C(=O)c2cc(=O)c3ccccc3o2)CC1 |  | inconclusive: 0.355 µM [inhibitor, full curve, poor fit]
56 | COc1ccc(CCN2C(=O)CSC2=S)cc1OC |  | inconclusive: 50.1 µM [inhibitor, partial curve, poor fit]
57 | CCOC(=O)C(C)Sc1nc2c(c(=O)[nH]c(=O)n2C)n1C/C=C(/C)Cl (centres undefined) |  | inconclusive: 63.1 µM [inhibitor, partial curve, poor fit]
58 | CCN1C(=O)c2cccc3c(S(=O)(=O)N4CCC(C)CC4)ccc1c23 | inactive: 1.35% | 
59 | COc1ccc(C(=O)Oc2cc(C)c(CN3CCOCC3)cc2C)cc1OC |  | inconclusive: 0.316 µM [inhibitor, full curve, poor fit]
60 | Cc1[nH]c(=O)[nH]c(=O)c1S(=O)(=O)Nc1ccc(Oc2ccccc2)cc1 |  | inconclusive: 112 µM [inhibitor, single point]
61 | O=C(CCNC(=O)c1ccc(Br)cc1)Nc1ccc(S(=O)(=O)Nc2ncccn2)cc1 |  | inconclusive: 39.8 µM [inhibitor, partial curve, poor fit]
62 | CN(C)c1ccc(C(=O)OCc2ccccc2)cc1 | inactive: 0% | 
63 | CCCc1c(-c2ccccc2OC)ncn1CCc1ccccc1OC | inactive: -9.8% | 
64 | CC(=O)C1=C(O)C(=O)N(Cc2ccccc2)C1c1ccc(Cl)cc1 (centres undefined) |  | inconclusive: 31.6 µM [inhibitor, partial curve]

Entries of single compounds from above:
CN(C)c1ccc(C(=O)OCc2ccccc2)cc1 reads activity change, negative = inhibition: inactive: 0%
Cc1c(-c2ccc(F)cc2)[nH]c2ccc(CNC(=O)c3ccc(CO)o3)cc12 reads Potency: inconclusive: 50.1 µM [inhibitor, partial curve]
Cc1noc(C)c1NC(=O)N(C)C[C@@H]1Oc2c(NC(=O)c3ccncc3)cccc2C(=O)N([C@H](C)CO)C[C@@H]1C reads Potency: inconclusive: 22.4 µM [inhibitor, partial curve, poor fit]
